Values from PubChem BioAssay AID493246 (Drosophila RNAi Screening Center, 2011).

Screen: 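Identify essential fly genes by loss of cell viability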 (primary screen)
Cell system: Drosophila Kc and S2R+ cells
Knock-down reagent: long dsRNA against Drosophila genes
Measured: 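Cell number per well after knock-down, printed as raw plate values; calls were based on per-plate z-scores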
Scale: Kc cell number and S2R+ cell number: higher = more cells remaining
Active means: 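Active when the per-plate z-score of cell number is 3 or more in the direction of fewer cells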
The deposit covers about 21,000 reagents; below is an unselected part of those with a known target gene and a result. Over the whole deposit, 429 (2%) were called active. 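Values are raw and not normalised between plates; calls rest on per-plate z-scores that were not deposited.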 Unmarked entries are inactive. Reagents against one gene are numbered here. A plus sign joins genes that one reagent is predicted to hit. Not stated in the record: the amount of reagent, the time to read-out.

gene knocked down	reagent	Kc cell number, rep 1	Kc cell number, rep 2	S2R+ cell number, rep 1	S2R+ cell number, rep 2
DIP2	1	1.28e6	1.34e6	1.18e6	1.25e6
Son	1	1.37e6	1.45e6	1.33e6	1.45e6
lola	1	1.43e6	1.35e6	7.97e5	9.80e5
lola	2	1.62e6	1.61e6	1.04e6	1.24e6
lola	3	1.61e6	1.53e6	9.97e5	1.19e6
lola	4	1.44e6	1.42e6	7.94e5	9.79e5
lola	5	1.50e6	1.50e6	9.69e5	1.16e6
lola	6	1.42e6	1.45e6	1.06e6	1.19e6
lola	7	1.71e6	1.62e6	1.25e6	1.29e6
lola	8	1.32e6	1.44e6	1.12e6	1.18e6
lola	9	1.91e6	1.98e6	1.41e6	1.61e6
lola	10	1.05e6 (active)	1.20e6	7.04e5	8.38e5
lola	11	1.41e6	1.44e6	1.16e6	1.24e6
lola	12	1.68e6	1.76e6	1.08e6	1.24e6
Larp7	1	1.49e6	1.56e6	1.01e6	1.16e6
UGP	1	1.41e6	1.50e6	1.25e6	1.17e6
RtGEF	1	1.72e6	1.91e6	1.38e6	3.78e5
cyp33 + CG34194	1	4.30e5		6.96e5	
Obp18a	1	1.43e6	1.48e6	1.04e6	1.12e6
PolH	1	1.67e6	1.73e6	1.20e6	1.24e6
SkpC	1	1.54e6	1.56e6	1.03e6	1.14e6
GstO3	1	1.51e6	1.45e6	1.14e6	1.21e6
RhoGAP102A	1	1.27e6	1.49e6	1.06e6	1.10e6
RhoGAP102A	2	1.63e6	1.73e6	1.08e6	1.10e6
Sur	1	1.33e6	1.36e6	1.06e6	1.06e6
CR42545	1	1.51e6	1.54e6	1.20e6	3.07e5
Menl-2 + Menl-1	1	1.65e6	1.72e6	1.31e6	1.55e6
Menl-2 + Menl-1	2	1.61e6	1.60e6	1.20e6	1.38e6
CG32651	1	1.08e6	1.36e6	1.06e6	1.08e6
CG9733	1	1.48e6	1.48e6	1.01e6	1.14e6
CG31915	1	1.47e6	1.40e6	1.15e6	1.32e6
Galphaf	1	1.29e6	1.42e6	1.23e6	1.35e6
CG6765	1	1.28e6	1.38e6	1.15e6	1.20e6
Cpr30B	1	1.57e6	1.67e6	1.36e6	1.44e6
snky	1	1.33e6	1.38e6	1.25e6	1.34e6
MED10	1	1.67e6	1.73e6	1.21e6	1.37e6
CG4854	1	1.47e6	1.41e6	1.13e6	1.20e6
conu	1	1.55e6	1.51e6	9.86e5	1.15e6
Tes	1	1.50e6	1.58e6	1.15e6	1.25e6
SkpE	1	1.54e6	1.55e6	1.05e6	1.14e6
CG13492	1	1.58e6	1.59e6	1.25e6	3.70e5
CG6276	1	1.54e6	1.64e6	1.29e6	1.40e6
Wnk	1	1.40e6 (active)	1.42e6	7.61e5	9.12e5
asf1	1	1.42e6	1.48e6	1.09e6	1.12e6
CG13078	1	1.59e6	1.61e6	1.33e6	5.65e5
RpL36	1	9.97e5 (active)	1.06e6	5.81e5	6.90e5
Ass + CG31286	1	1.42e6	1.55e6	1.23e6	1.26e6
Hacd1	1	1.33e6	1.36e6	1.08e6	1.15e6
CG16736	1	1.64e6	1.77e6	1.32e6	1.57e6
18w	1	1.33e6	1.40e6	1.23e6	1.24e6
Unc-76	1	1.42e6	1.46e6	1.09e6	1.14e6
Unc-76	2	1.50e6	1.49e6	1.06e6	1.14e6
asun	1	1.59e6	1.74e6	1.16e6	1.22e6
Ir52b	1	1.85e6	1.85e6	1.28e6	1.53e6
CRMP	1	1.23e6	1.32e6	1.04e6	1.14e6
CRMP	2	1.50e6	1.58e6	1.23e6	1.24e6
Tsp42Eh	1	1.55e6	1.58e6	1.25e6	1.28e6
CG13711	1	1.35e6	1.34e6	1.10e6	1.21e6
CG17192	1	1.72e6	1.74e6	1.05e6	1.22e6

Reformatted: entries from further up
CG6276 → Kc cell number, rep 1: 1.54e6; Kc cell number, rep 2: 1.64e6; S2R+ cell number, rep 1: 1.29e6; S2R+ cell number, rep 2: 1.40e6
Wnk → Kc cell number, rep 1: 1.40e6 (active); Kc cell number, rep 2: 1.42e6; S2R+ cell number, rep 1: 7.61e5; S2R+ cell number, rep 2: 9.12e5
asf1 → Kc cell number, rep 1: 1.42e6; Kc cell number, rep 2: 1.48e6; S2R+ cell number, rep 1: 1.09e6; S2R+ cell number, rep 2: 1.12e6
CG13078 → Kc cell number, rep 1: 1.59e6; Kc cell number, rep 2: 1.61e6; S2R+ cell number, rep 1: 1.33e6; S2R+ cell number, rep 2: 5.65e5
RpL36 → Kc cell number, rep 1: 9.97e5 (active); Kc cell number, rep 2: 1.06e6; S2R+ cell number, rep 1: 5.81e5; S2R+ cell number, rep 2: 6.90e5
Ass + CG31286 → Kc cell number, rep 1: 1.42e6; Kc cell number, rep 2: 1.55e6; S2R+ cell number, rep 1: 1.23e6; S2R+ cell number, rep 2: 1.26e6
Hacd1 → Kc cell number, rep 1: 1.33e6; Kc cell number, rep 2: 1.36e6; S2R+ cell number, rep 1: 1.08e6; S2R+ cell number, rep 2: 1.15e6
CG16736 → Kc cell number, rep 1: 1.64e6; Kc cell number, rep 2: 1.77e6; S2R+ cell number, rep 1: 1.32e6; S2R+ cell number, rep 2: 1.57e6
